Reference: publication PMC4391862
Results are given in words; binding and its absence hold for the method and conditions named. In cells and extracts the contact can be indirect. Some results given as binding are weak or reduced against the parent protein; the word gives no strength.

Chains of the proteins cited; added tags and fusions are not shown.
UniProt P53779: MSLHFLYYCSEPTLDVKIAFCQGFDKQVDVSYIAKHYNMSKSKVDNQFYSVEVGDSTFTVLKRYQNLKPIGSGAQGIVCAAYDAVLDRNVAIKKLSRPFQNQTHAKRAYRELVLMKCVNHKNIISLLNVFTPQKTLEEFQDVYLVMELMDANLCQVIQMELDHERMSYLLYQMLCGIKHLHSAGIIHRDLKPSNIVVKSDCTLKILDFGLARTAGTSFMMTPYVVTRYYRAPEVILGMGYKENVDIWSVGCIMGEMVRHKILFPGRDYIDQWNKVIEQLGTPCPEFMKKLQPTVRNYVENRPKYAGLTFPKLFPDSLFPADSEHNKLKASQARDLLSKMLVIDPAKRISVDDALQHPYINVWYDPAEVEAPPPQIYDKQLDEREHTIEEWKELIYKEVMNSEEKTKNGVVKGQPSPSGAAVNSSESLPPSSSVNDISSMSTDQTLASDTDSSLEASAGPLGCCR
UniProt P32121: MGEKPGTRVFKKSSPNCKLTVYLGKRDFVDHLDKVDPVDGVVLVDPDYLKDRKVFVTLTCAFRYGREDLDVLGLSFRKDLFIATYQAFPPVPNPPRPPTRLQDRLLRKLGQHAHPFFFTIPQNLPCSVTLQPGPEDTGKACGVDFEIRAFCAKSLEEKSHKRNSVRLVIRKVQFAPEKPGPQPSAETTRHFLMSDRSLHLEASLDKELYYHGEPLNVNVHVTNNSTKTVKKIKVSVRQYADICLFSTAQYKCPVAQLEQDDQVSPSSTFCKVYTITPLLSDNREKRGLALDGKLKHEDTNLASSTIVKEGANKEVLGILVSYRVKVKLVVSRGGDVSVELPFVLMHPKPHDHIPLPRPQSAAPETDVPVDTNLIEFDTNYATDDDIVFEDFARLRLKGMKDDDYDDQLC

Target: JNK3 (human (endogenous in SH-SY5Y)) (UniProt P53779)
Test: co-IP; endogenous proteins from SH-SY5Y cells; non-denaturing lysis buffer (20 mM Tris HCl pH 8.0, 137 mM NaCl, 10% glycerol, 1% NP-40, 2 mM EDTA), primary antibody overnight at 4°C, protein A sepharose; cells treated with MPP+ (3 mM, 12 hr) or vehicle, with or without JNK3-N-Tat or JNK3-4A-Tat (20 μM) 1 hr before

binding: binds
Substance: β-arrestin2 (from UniProt P32121 1-409)
